According to PubChem BioAssay AID485314 (National Center for Advancing Translational Sciences (NCATS), 2010):
Screen size: about 340,000 compounds; about 4,500 (1.3%) were called active. The shares of active, inactive and inconclusive entries below differ from those in the screen. The call rests on the fitted dose curve; in most records, active means well fitted inhibition curve with a large enough effect; inconclusive means small, poorly fitted or top-dose-only effect, or another doubt; inactive means no such curve, though single readings can be large or run the other way. Potencies of inconclusive entries are doubtful fits and often do not repeat.

Biological target: DNA polymerase beta (Homo sapiens) (UniProt P06746)
Experiment: qHTS Assay for Inhibitors of DNA Polymerase Beta
Settings: Pol beta primer extension/strand displacement, fluorescence kinetic; activity change, negative = inhibition: at 114 µM (top of the series)
Summary of the method: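 Pol beta (10 nM) was preincubated with compound for 15 min at room temperature. The reaction was then started with 50 nM substrate and read immediately and after a further 10 min at room temperature.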
On the % scale 0 is the no-effect control and ±100 the full control effect; potency means the concentration at half of the fitted maximal effect.

Row | Compound | Potency | activity change, negative = inhibition
1 | Cc1ccc(-c2nn3c(-c4ccco4)nnc3c3ccccc23)cc1S(=O)(=O)NCC1CCCO1 (stereo not drawn) | inconclusive: 56.2 µM [inhibitor, partial curve, poor fit] | –
2 | COC(=O)c1cc(NC(=O)CSc2ncn[nH]2)ccc1Cl | inconclusive: 14.1 µM [inhibitor, partial curve] | –
3 | O=C(C1=C[C@@H](c2csc3ccccc23)C[C@@H](OCc2ccc(CO)cc2)O1)N1CCN(Cc2ccccc2)CC1 | – | inactive: -7.57%
4 | CC(OC(=O)/C=C/c1ccco1)C(=O)Nc1cccc([N+](=O)[O-])c1 (stereo not drawn) | inconclusive: 3.55 µM [inhibitor, full curve, poor fit] | –
5 | N#Cc1c(-c2ccco2)cc(-c2cccnc2)nc1N | inconclusive: 25.1 µM [inhibitor, full curve, poor fit] | –
6 | CC(C(=O)NC1CCCCCC1)N(c1ccccc1)S(C)(=O)=O (stereo not drawn) | inconclusive: 89.1 µM [inhibitor, single point] | –
7 | COc1ccc(NC(=O)C2CCN(C3=NS(=O)(=O)C(c4ccc(C)c(C)c4)=C3C)CC2)cc1OC | inconclusive: 31.6 µM [inhibitor, full curve] | –
8 | Cc1ccc(C(=O)N2c3nc(-c4ccco4)nn3C3(CCCCC3)[C@@H]3CCCC[C@@H]32)cc1 | – | inactive: -0.715%
9 | COC/C=C/C1=CC2=CC(=O)C(C)(OC(=O)c3cnc4ccccc4n3)C(=O)C2=CN1Cc1ccccc1 (stereo not drawn) | active: 10 µM | –
10 | O=c1c2[nH]cnc2n(-c2ccc(F)cc2)c(=O)n1Cc1ccccc1 | inconclusive: 4.47 µM [inhibitor, single point] | –
11 | O=C(CSc1ccsc1[N+](=O)[O-])NCc1ccccc1 | inconclusive: 14.1 µM [inhibitor, partial curve] | –
12 | COCCCNC(=O)CCCN1C(=O)CCn2nc(-c3cn(C)c4ccccc34)cc21 | inconclusive: 89.1 µM [inhibitor, single point] | –
13 | COC(=O)CSc1ccccc1C(=O)OC | inconclusive: 89.1 µM [inhibitor, single point] | –
14 | Cc1cc(=O)oc(C)c1C(=O)NCCC(C)C | – | inactive: 3.8%
15 | COc1ccccc1CCNC(=O)c1ccc2nc[nH]c2c1 | active: 44.7 µM | –
16 | Cc1ccc(C(=O)NCCn2c(N)c(C#N)c3nc4ccccc4nc32)cc1 | inconclusive: 22.4 µM [inhibitor, partial curve] | –
17 | Cc1ccc(NC(=O)[C@H](CSCc2ccccc2)N2Cc3ccccc3C2=O)cc1 | inconclusive: 89.1 µM [inhibitor, single point] | –
18 | Cc1ccc(S(=O)(=O)N(CC(=O)NCc2ccco2)Cc2ccc(F)cc2)cc1 | inconclusive: 5.01 µM [inhibitor, full curve, poor fit] | –

Exported as tab-separated lines: two of the compounds above
Row	Compound	Potency	activity change, negative = inhibition
6	CC(C(=O)NC1CCCCCC1)N(c1ccccc1)S(C)(=O)=O (stereo not drawn)	inconclusive: 89.1 µM [inhibitor, single point]	–
7	COc1ccc(NC(=O)C2CCN(C3=NS(=O)(=O)C(c4ccc(C)c(C)c4)=C3C)CC2)cc1OC	inconclusive: 31.6 µM [inhibitor, full curve]	–
